Assay results taken from PubChem BioAssay AID504432 (National Center for Advancing Translational Sciences (NCATS), 2011).
This list was built around the results that the source calls inconclusive (neither active nor inactive); the mix of calls is not that of the screen. A potency beside an inconclusive call is a rough fit, not a confirmed value. Calls of active or inactive are those of the source. Calls come from the whole dose curve; as a rule, active = well fitted inhibition curve with a large enough effect; inconclusive = small, poorly fitted or top-dose-only effect, or another doubt; inactive = flat fitted curve, though single readings scatter.

Test: Confirmation Concentration-Response Assay for lipid storage modulators: for probe SAR round 2
Description: NIH Molecular Libraries Probe Production Centers Network [MLPCN] NIH Chemical Genomics Center [NCGC] MLPCN Grant: 1 R03 MH085686-01 Assay Submitter (PI): Beller, Mathias; Max-Planck-Institut fur Biophysikalische Chemie NCGC Assay Overview: Storing lipids as a reservoir for energy or the anabolism of elementary metabolites is a common feature of probably all cells and is conserved from bacteria to humans. The universal cellular lipid storage organelle is the so-called lipid storage droplet (LD). Although ubiquitous, LDs share a simple structure composed of a hydrophobic core that harbors the storage lipids, which is shielded by a droplet-specific phospholipid monolayer to which proteins are attached. The current model of LD biogenesis involves an incorporation of the lipid core into the membrane leaflets of the endoplasmic reticulum (ER) followed by a subsequent budding-like maturation of a LD, which ultimately pinches off. Once released, LD volume can increase by localized lipogenesis or fusion of existing droplets. Storage lipids are re-mobilized enzymatically by lipase activity. Lipase regulation in the adipocyte is heavily studied and involves multiple components including catecholamine signaling, the LD-associated proteins Perilipin and comparative gene identification-58 (CGI-58) and at least two lipases named hormone sensitive lipase (HSL) and adipocyte triglyceride lipase (ATGL). LD regulation outside of the adipocyte is poorly understood and only few components are known. However, there is an urgent need to learn more about ectopic fat depots as mislocalized storage of lipids, for example in the liver or muscle, is an eminent health problem associated with insulin resistance or the metabolic syndrome. We developed a laser-scanning cytometer assay to enable 1,536-well screening and combined the results of the small molecules screen with an RNAi database based on lipid storage.
We dispensed 4 uL of cells at 1.25 x 10^6 cells/mL into LoBase Aurora COC 1,536-well plates (black walled, clear bottom) with a bottle-valve solenoid-based dispenser (Aurora) to obtain 5,000 cells/well. Triacsin C (Sigma-Aldrich T-4540), an inhibitor of long-chain fatty acyl CoA synthetase that blocks synthesis of triglycerides, was used as a positive control for lipid under-storage. A total of 23 nL of compound solution of different concentrations were transferred to the assay plates using a Kalypsys pin tool equipped with a 1,536-pin array containing 10-nL slotted pins (FP1S10, 0.457-mm diameter, 50.8 mm long; V&P Scientific). One microliter of oleic acid (400 uM) was added, and the plate was lidded with stainless steel rubber gasket lined lids containing pinholes. After 18-24 h incubation at 24 degree Celsius and 95% humidity, 4 uL of the dyes BODIPY 493/503 (Molecular Probes) and the Cell Tracker Red CMTPX dye (Molecular Probes) were added to the wells to stain lipid droplets and enumerate cell number, respectively. Fluorescence was detected by excitation of the fluorophores with a 488-nm laser on an Acumen Explorer (TTP Lab Tech). The total intensity in channel 1 (500-530 nm) reflected lipid droplet accumulation. Cells were detected using channel 3 (575- 640 nm) with 5-um width and 100-um depth filters. The ratio of the total intensity in PMT channel 1 over total intensity of channel 3 was also calculated. […]

Compound | Potency
CCOC(=O)C1CCN(C(=O)C(C)(C)NC(=O)Nc2ccc(C#N)cc2)CC1 | inconclusive: 7.91 µM [falling, partial curve, poor fit]
CCOC(=O)C1CCN(C(=O)C(C)(C)NC(=O)Nc2ccc(CN3CCOCC3)cc2)CC1 | inactive
CCOC(=O)C1CCN(C(=O)C(C)(C)NC(=O)Nc2ccc3sccc3c2)CC1 | active: 12.5 µM
CC(C)(NC(=O)Nc1ccccc1Cl)C(=O)N1CCC(C(=O)O)CC1 | inactive
CCOC(=O)C1CCN(C(=O)C(C)(C)NC(=O)Nc2cccc(OC)c2)CC1 | active: 4.45 µM
